Test results reported in US10077293B2, “Antimicrobial peptide analogues derived from abalone (Haliotis discus) and antimicrobial pharmaceutical composition containing the same” (priority 2016, dated 2018).
At least one peptide structure holds a part that was inferred or is arguable (an end, a ring closure or a residue). For some assays here: For at least one compound, name, drawing or mass did not settle the structure. Ends that are not written are not given here.

Tests used:
E. coli ML35p = test: Chromogenic bacteriolytic plate assay; format: cell-based; details: E. coli ML35p (FIG. 6)
Protocol: In order to investigate the lytic activity of the analogues for bacterial membrane, chromogenic bacteriolytic plate assay was conducted using E. coli ML35p containing a chromosomal IPTG-inducible β-galactosidase gene (Mardones, G., Venegas, A. Chromogenic plate assay distinguishing bacteriolytic from bacteriostatic activity of an antibiotic agent. J Microbiol Methods. 2000, 40(3), 199-206). After inoculating 2 mL of E. coli ML35p to TSB and culturing at 37° C. for 16-18 hours, a mixture of 50 μL of the cultured microorganism solution, 10 μL of 1 mM IPTG and 50 μL of 50 mg/mL X-gal was poured onto TSB containing 0.8% agarose at 42° C. the next day. After boring a well on the solidified plate, 5 μL of each peptide analogue solution was introduced and incubation was conducted for 3 hours. Then, after pouring 2×TSB containing 10 mL of 1.5% agarose to the plate and solidifying, incubation was conducted again for 16-18 hours. After the incubation, the size (diameter) of a clearing zone and the presence or absence of a blue line at the edge portion were investigated.

B. subtilis KCTC1021 = test: Ultrasensitive radial diffusion assay (URDA), antimicrobial activity; format: cell-based, Bacillus subtilis; details: B. subtilis KCTC1021, Gram +
Protocol: (§1) Four species of Gram positive bacteria (Bacillus subtilis, Staphylococcus epidermidis, […] and Propionibacterium acnes), five species of Gram negative bacteria (E. coli D31, E. coli ML35p, Shigella flexneri, Pseudomonas aeruginosa and Vibrio parahaemolyticus) and one yeast species (Candida albicans) were used for experiments. The antimicrobial activity was measured by ultrasensitive radial diffusion assay (URDA) using two layers of media of different concentrations. First, the microorganisms were pre-cultured in each medium for 18 hours and the concentration of the microorganisms was adjusted to 84% T (≈1×10^8 CFU/mL) using a colorimeter (Product No. 52-1210, BioMerieux, Inc., USA). Then, 0.5 mL of the diluted microorganism solution was added to an underlay gel containing 9.5 mL of 0.03% TSB, 1% type I agarose and 10 mM phosphate buffer (PB; pH 6.5) and plated and solidified on a plate after mixing well. After boring a well with a diameter of 2.5 mm on the solidified plate using a punch, 5 μL of each analogue solution was introduced. All the analogues were dissolved in 5 μL of 0.01% acetic acid to avoid any effect of solvent. […] Next day, the antimicrobial activity was determined by measuring the size (diameter) of a clear zone formed around the well. […]

S. epidermidis KCTC1917 = test: as above; format: cell-based, Staphylococcus epidermidis; details: S. epidermidis KCTC1917, Gram +
Protocol: as §1

S. mutans KCCM40105 = test: as above; format: cell-based, Streptococcus mutans; details: S. mutans KCCM40105, Gram +
Protocol: as §1

P. aeruginosa KCTC2004 = test: as above; format: cell-based, Pseudomonas aeruginosa; details: P. aeruginosa KCTC2004, Gram −
Protocol: as §1

[1] = system: Propionibacterium acnes KCTC11946; test: as above; format: cell-based; details: Propionibacterium acnes KCTC11946, Gram +
Protocol: (§2) Four species of Gram positive bacteria (Bacillus subtilis, Staphylococcus epidermidis, […] and Propionibacterium acnes), five species of Gram negative bacteria (E. coli D31, E. coli ML35p, Shigella flexneri, Pseudomonas aeruginosa and Vibrio parahaemolyticus) and one yeast species (Candida albicans) were used for experiments. The antimicrobial activity was measured by ultrasensitive radial diffusion assay (URDA) using two layers of media of different concentrations. First, the microorganisms were pre-cultured in each medium for 18 hours and the concentration of the microorganisms was adjusted to 84% T (≈1×10^8 CFU/mL) using a colorimeter (Product No. 52-1210, BioMerieux, Inc., USA). Then, 0.5 mL of the diluted microorganism solution was added to an underlay gel containing 9.5 mL of 0.03% TSB, 1% type I agarose and 10 mM phosphate buffer (PB; pH 6.5) and plated and solidified on a plate after mixing well. After boring a well with a diameter of 2.5 mm on the solidified plate using a punch, 5 μL of each analogue solution was introduced. All the analogues were dissolved in 5 μL of 0.01% acetic acid to avoid any effect of solvent. After the analogue permeated into the medium, the microorganisms were cultured for 3 hours and an overlay gel containing 10 mL of 6% TSB, 1% type I agarose and 10 mM phosphate buffer (pH 6.5) was poured and solidified. Then, the microorganisms were cultured again for 18 hours at the same temperature. Next day, the antimicrobial activity was determined by measuring the size (diameter) of a clear zone formed around the well. Piscidin 1, an antimicrobial peptide derived from the mast cells of a hybrid striped bass, was used as a control.

[2] = system: Vibrio parahaemolyticus KCCM42264; test: as above; format: cell-based
Protocol: as §2

C. albicans = test: as above; format: cell-based, Candida albicans
Protocol: as §1

Compound	bacteriolytic activity: blue line at the edge portion of the clearing zone (E. coli ML35p)	Minimal effective concentration (B. subtilis KCTC1021)	Minimal effective concentration (S. epidermidis KCTC1917)	Minimal effective concentration (S. mutans KCCM40105)	Minimal effective concentration (P. aeruginosa KCTC2004)	Minimal effective concentration [1]	Minimal effective concentration [2]	Minimal effective concentration (C. albicans; C. albicans KCTC7965, yeast)	Minimal effective concentration (C. albicans; C. albicans KCCM42264 (as printed in Table 2), yeast)
CN(C)[C@@H]1C(O)=C(C(N)=O)C(=O)[C@@]2(O)C(O)=C3C(=O)c4c(O)cccc4[C@@](C)(O)[C@H]3C[C@@H]12 [tetracycline]	showed no blue line at the edge portion								
KWLLKLLKKL [SEQ ID NO 10, KWLLKLLKKL]	showed bacteriolytic activity	9.6 µg/mL	4.6 µg/mL	4.1 µg/mL	7.2 µg/mL	6.2 µg/mL	4.7 µg/mL	7.4 µg/mL	
LLWKLLKKL [SEQ ID NO 4, LLWKLLKKL]	showed bacteriolytic activity	5.8 µg/mL	5.6 µg/mL	5.5 µg/mL	10.7 µg/mL	9.4 µg/mL	5.3 µg/mL		10.0 µg/mL
